In PubChem BioAssay AID504834 (National Center for Advancing Translational Sciences (NCATS), 2011):
Among all 320,000 compounds or so, about 22,000 (6.9%) were called active. This list was built around the results that the source calls inconclusive (neither active nor inactive); the mix of calls is not that of the screen. Calls come from the whole dose curve; as a rule, active = well fitted inhibition curve with a large enough effect; inconclusive = small, poorly fitted or top-dose-only effect, or another doubt; inactive = no such curve, though single readings can be large or run the other way. Potencies beside an inconclusive call are fits to weak or partial responses and may not hold up.

test: Primary qHTS for delayed death inhibitors of the malarial parasite plastid, 96 hour incubation; conditions: P. falciparum luciferase reporter growth; series mostly up to 28.7 µM; activity change, negative = inhibition: at the top concentration
Outline: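 P. falciparum expressing integrated firefly luciferase, in erythrocytes at 2% hematocrit, 0.05% parasitemia, incubated with compounds 96 h at 37 C, 5% CO2. Growth inhibition read as loss of luminescence; two-generation exposure targets delayed-death apicoplast inhibitors.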
% is set by controls: 0 for no effect and ±100 for the full control effect; potency is the fitted concentration of half-maximal effect.

| Structure (SMILES) | Potency | activity change, negative = inhibition |
| --- | --- | --- |
| COc1ccc(C2CC(=O)c3c(C)nc(N4CCN(c5ccccc5)CC4)nc3C2)cc1 (stereo not drawn) | inconclusive: 18.5 µM [inhibitor, single point] | – |
| CC1CN(C(=S)Nc2ccc(Br)cc2Cl)CC(C)O1 (stereo not drawn) | inconclusive: 18.5 µM [inhibitor, partial curve, poor fit] | – |
| CN(C)C(=O)c1nc2ccc(Cl)cn2c1CNCc1cccc(OC(F)(F)F)c1 | – | inactive: -21% |
| Cc1c(CC(=O)NCCCCCC(=O)O)c(=O)oc2cc3c(cc12)CCC(C)(C)O3 | inconclusive: 11.7 µM [inhibitor, single point] | – |
| COc1ccc(-c2nc(CCNC(=O)c3ccc(Br)o3)cs2)cc1 | active: 8.28 µM | – |
| S=C(Nc1ccc(Cl)cc1Cl)N1CCCC1 | inconclusive: 18.5 µM [inhibitor, single point] | – |
| COc1nc(N/N=C/c2ccc(-c3cccc([N+](=O)[O-])c3)o2)nc(N2CCOCC2)n1 | inconclusive: 18.5 µM [inhibitor, single point] | – |
| c1ccc2[nH]c(CSc3nc4ccccc4s3)nc2c1 | – | inactive: -26% |
| CC1=C(C(=O)NC2CCCc3c2cnn3-c2ccc(F)cc2F)OCCO1 (stereo not drawn) | – | inactive: 19% |
| COc1ccc(NC(=O)c2ccc3[nH]c(C)c(C)c3c2)c(OC)c1 | – | inactive: -10.8% |
| Cc1ccc(/C=N/NC(=O)CNC(=O)c2ccc(S(=O)(=O)N3CCCC3)cc2)o1 | – | inactive: 58.3% [at 5.75 µM] |
| CCOC(=O)C1=C(C)C(c2ccccc2OC)NC(=S)N1 (stereo not drawn) | inconclusive: 18.5 µM [inhibitor, single point] | – |
| Cc1cccc(S(=O)(=O)NNC(=O)c2cc(-c3ccc(F)cc3)nc3ccccc23)c1 | – | inactive: -2.49% |
| Cn1c(=O)c2c(nc(OCC3COC(C)(C)O3)n2Cc2ccccc2F)n(C)c1=O (stereo not drawn) | inconclusive: 10.4 µM [inhibitor, single point] | – |
| N#Cc1ncc(-c2ccc3c(c2)OCCOCCOCCOCCO3)nc1C#N | active: 11.7 µM | – |
| COc1ccc2cc(C3CC(c4ccco4)=NN3S(=O)(=O)c3ccccc3)c(Cl)nc2c1 (stereo not drawn) | inconclusive: 14.7 µM [inhibitor, single point] | – |
| Cc1cnc(NC(=O)Nc2ccccc2)c(C)n1 | – | inactive: -1.68% |
| COc1ccc(NC(=O)CN2CC=C(c3ccccc3)CC2)cc1S(=O)(=O)N1CCOCC1 | inconclusive: 9.28 µM [inhibitor, partial curve, poor fit] | – |
| CN(C)C(CNC(=O)/C=C/c1cccc(Cl)c1)c1ccccc1 (stereo not drawn) | inconclusive: 9.28 µM [inhibitor, single point] | – |
| COC(=O)c1cn[nH]c1N | inconclusive: 8.28 µM [inhibitor, partial curve, poor fit] | – |
| O=C(Nc1ccc(NC(=O)c2cc([N+](=O)[O-])ccc2N2CCOCC2)cc1)c1cccs1 | – | inactive: -4.56% |
| Cn1c(=O)c2cc(S(=O)(=O)NC(C(=O)NCc3cccnc3)c3ccccc3)ccc2n(C)c1=O (stereo not drawn) | inconclusive: 10.4 µM [inhibitor, single point] | – |
| CCCCCN1C=CC(=C2C(=O)c3ccccc3C2=O)C=C1 | – | inactive: 2.55% |
| COc1cccc(N2C(=NC(=O)CCC3CCCC3)SC3CS(=O)(=O)CC32)c1 (stereo not drawn) | – | inactive: 9.2% |

Sorted by molar mass (ascending): some entries from above.

| Structure (SMILES) | Potency | activity change, negative = inhibition |
| --- | --- | --- |
| S=C(Nc1ccc(Cl)cc1Cl)N1CCCC1 | inconclusive: 18.5 µM [inhibitor, single point] | – |
| COc1cccc(N2C(=NC(=O)CCC3CCCC3)SC3CS(=O)(=O)CC32)c1 (stereo not drawn) | – | inactive: 9.2% |
| COc1ccc(C2CC(=O)c3c(C)nc(N4CCN(c5ccccc5)CC4)nc3C2)cc1 (stereo not drawn) | inconclusive: 18.5 µM [inhibitor, single point] | – |

Next part:

| Structure (SMILES) | Potency | activity change, negative = inhibition |
| --- | --- | --- |
| CN(C)CCCN1C(=O)CSC1c1ccc([N+](=O)[O-])cc1 (stereo not drawn) | – | inactive: 23.9% |
| COc1ccc(S(=O)(=O)NCCOc2ccc(Cl)cc2)cc1 | – | inactive: 35.7% |
| COC(=O)C1=C(C)N(Cc2ccccc2)C(=NCc2cccc(Cl)c2)N[C@H]1c1cccc(F)c1 | inconclusive: 14.7 µM [inhibitor, partial curve, poor fit] | – |
| CC(C(=O)C12CC3CC(CC(C3)C1)C2)N1CCOCC1 (stereo not drawn) | active: 1.85 µM | – |
| COc1ccccc1N1CCN(C(=O)C(=O)c2cn(CC(=O)N3CCOCC3)c3ccccc23)CC1 | inconclusive: 7.38 µM [inhibitor, partial curve, poor fit] | – |
| COc1ccc2c(c1)c(C(=O)CN1CCC3(CC1)OCCO3)c(C)n2C | inconclusive: 13.1 µM [inhibitor, partial curve] | – |
| O=C(N/N=C/c1c(F)cccc1Cl)c1ccc(Cn2cc(Br)cn2)o1 | inconclusive: 13.1 µM [inhibitor, single point] | – |
| CC(=O)c1ccc(N2CCN(C(=O)c3cc4c(C)nc5ccccc5c4o3)CC2)cc1 | inconclusive: 11.7 µM [inhibitor, partial curve] | – |
| COc1ccccc1-c1nc(-c2ccccc2)[nH]c(=O)c1C#N | – | inactive: -7.2% |
| O=C(Cc1ccccc1)N/N=C/c1ccccc1Cl | inconclusive: 4.15 µM [inhibitor, single point] | – |
| CCOC(=O)N1CCC(NC(=O)C2=CCN(S(=O)(=O)c3ccccc3)CC2)CC1 | inconclusive: 13.1 µM [inhibitor, single point] | – |
| Cc1cc(NC(=O)COC(=O)CCNS(=O)(=O)c2c(Cl)cccc2Cl)no1 | – | inactive: 32.9% |
| O=C(NC1CCCCC1)C(c1ccc(F)cc1)N(Cc1ccco1)C(=O)c1ccccn1 (stereo not drawn) | – | inactive: 42.8% |
| CC(C)(C)NC(=O)COC(=O)CCC(=O)c1cccs1 | – | inactive: 20.1% |
| CCCCCCOc1ccc(-c2ccc(C#N)cn2)cc1 | inconclusive: 18.5 µM [inhibitor, single point] | – |
| Cc1ccc(C)c(S(=O)(=O)N2CCN(C(=O)Nc3ccccc3)CC2)c1 | – | inactive: 37.2% |
| O=C(c1cccc(C(F)(F)F)c1)N(c1ccccn1)C1CCCCC1 | – | inactive: -29.5% |
| CN(C)C(=O)c1cc([N+](=O)[O-])ccc1O | – | inactive: 47.6% |
| OC(CNCCc1ccccc1)c1ccccc1 (stereo not drawn) | active: 5.86 µM | – |
| CC(C)CNc1nc(N)c([N+](=O)[O-])c(N2CCCCCC2)n1 | active: 10.4 µM | – |
| CCS(=O)(=O)C1=NSC2=NC(=O)/C(=C\c3cc(C)n(-c4cccc(OC)c4)c3C)C(=N)N21 | inconclusive: 18.5 µM [inhibitor, single point] | – |
| CSCCC(NC(=O)c1ccccc1Cl)C(=O)N1CCCCCCC1 (stereo not drawn) | – | inactive: 4.63% |
| CC(C)(C)C(=O)OCOC(=O)[C@@H]1N2C(=O)[C@@H](N=CN3CCCCCC3)[C@H]2SC1(C)C | inactive | – |
| COc1ccccc1CC(=O)N(Cc1ccccc1)c1cccc(C)c1 | inconclusive: 20.8 µM [inhibitor, partial curve, poor fit] | – |
